Measurements from US5962408A (Nycomed Imaging AS, priority 1994, dated 1999).
Strings that start with PEPTIDE1 are HELM notation: dots part the residues, brackets hold end groups and non-standard residues.

Test: general procedure: Fmoc solid-phase peptide synthesis; Fmoc-Cys(Trt)-p-alkoxybenzyl alcohol resin (0.55 mmol/g); HBTU/HOBt/iPr2NEt in NMP
Conditions: whole synthesis, 215 nm, scale of the general procedure 0.1 mmol

With “PEPTIDE1{C.E.Q.Y.C}$PEPTIDE1,PEPTIDE1,1:R3-5:R3$$$V2.0” the “final HPLC purity” value was >99%.
